Assay results taken from article PMC8408929, “Influence of osmolality on gastrointestinal fluid volume and drug absorption: potential impact on oral salt supplementation” (Journal of Pharmaceutical Health Care and Sciences, 2021).

Tested on: rat intestine (jejunum, ileum and colon)
Experiment: in situ rat intestinal closed loop method
Conditions: 30 min
Protocol: The in situ rat intestinal closed loop method was carried out as described previously. Male Wistar rats (7–8 weeks old; 250 ± 20 g body weight) were fasted overnight and anesthetized by intraperitoneal injection of a triple anesthetic combination (medetomidine, midazolam and butorphanol). The abdominal cavity was opened and an intestinal loop (jejunum, 10 cm; ileum, 10 cm; colon, 7 cm) was made by cannulation into both ends of the jejunum, ileum and colon with silicone tubing (i.d., 3 mm). The intestinal contents were washed out through the cannulas with saline. […] One mL of test compound solution (10 μM) was introduced into the intestinal loop and both ends of the loop were ligated. At the designated times (30 min), test compound solution in the loop was collected by flushing with air (for measuring the luminal concentration of test compound, Cout), and then made up to 10 mL with buffer solution (for measuring the amount of test compound, Xout). The volume of luminal water (mL) in each segment of intestine was calculated using the following equation: 1 Vwater=Xout/Cout where Vwater (mL) is the water volume in each segment of intestine, Cout is the luminal concentration of test compound (μM), and Xout is the amount of test compound (μmol). The fraction absorbed of test compound was calculated from the remaining amount of test compound in each intestinal loop. Final results were normalized to the surface area calculated from the radius and length of each segment of intestine. The radii of the small and large intestines reported by Fagerholm et al. were used (0.178 cm and 0.252 cm, respectively).
Concentrations of FD-4 were measured with a microplate fluorescence reader (VarioskanTM Flash 2.4; Thermo Fisher Scientific Inc., Kanagawa, Japan) at excitation/emission wavelengths of 492/515 nm.
An Agilent Eclitse plus (C18, 50 × 2.1 mm, 5 μm) was used as the analytical column. […] Analyst software version 1.4.2 (AB SCIEX) was used for data manipulation.

fluorescein isothiocyanate-dextran 4000 [FD-4]
remaining fraction of water (colon, FD-4 (10 μM) in hyperosmotic solution (10% NaCl)): 146 ± 3%
remaining fraction of water (colon, FD-4 (10 μM) in purified water): 34.6 ± 3.7%
remaining fraction of water (ileum, FD-4 (10 μM) in hyperosmotic solution (10% NaCl)): 142 ± 15%
remaining fraction of water (ileum, FD-4 (10 μM) in purified water): 74.4 ± 3.8%
remaining fraction of water (jejunum, FD-4 (10 μM) in hyperosmotic solution (10% NaCl)): 181 ± 4%
remaining fraction of water (jejunum, FD-4 (10 μM) in purified water): 67.9 ± 2.0%
